Test results reported in article PMC6716676, “Chemokine signaling links cell-cycle progression and cilia formation for left–right symmetry breaking” (PLoS Biology, 2019).
Positions count from the first letter of the chain named. In names and notes the source's numbering stands. These are yes or no findings as the source states them, for the method shown. For part of these data: Binding seen in cells or lysates may run through a third protein. Some results given as binding are weak or reduced against the parent protein; the word gives no strength. Where a sequence is shown, tags or fusion partners need not be part of it.

Legend:
[1] = target: T1, Flag-Psmd4b (proteasome 26S subunit, non-ATPase 4b), expressed in HEK293T (zebrafish) (UniProt Q561Y1); assay: co-IP; HEK293T cells transfected with the tagged proteins, in some panels MG132 for 5 hours prior to harvest or CDK4 / CDK4-K38M co-expressed; TNE lysis buffer, anti-Flag-agarose or protein A-Sepharose beads, 4 °C for 4 hours
T1 sequence: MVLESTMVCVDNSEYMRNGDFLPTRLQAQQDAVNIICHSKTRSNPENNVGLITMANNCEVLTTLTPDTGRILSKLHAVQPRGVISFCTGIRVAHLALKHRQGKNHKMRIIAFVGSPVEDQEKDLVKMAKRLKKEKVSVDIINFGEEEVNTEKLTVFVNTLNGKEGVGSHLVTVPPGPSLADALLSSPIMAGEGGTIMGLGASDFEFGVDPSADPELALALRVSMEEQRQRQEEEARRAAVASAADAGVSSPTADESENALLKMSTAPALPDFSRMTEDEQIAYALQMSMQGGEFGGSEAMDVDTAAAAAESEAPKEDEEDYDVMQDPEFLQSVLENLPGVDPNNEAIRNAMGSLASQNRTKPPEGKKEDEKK

[2] = target: Flag-zFoxj1a (zebrafish forkhead box j1a) (zebrafish) (UniProt F1QDF8); assay: as above
[3] = target: Flag-zFoxj1a-T102D (zebrafish) (UniProt F1QDF8); assay: as above
[4] = target: T2, Flag-Psmd4b expressed in zebrafish embryos (zebrafish) (UniProt Q561Y1); assay: co-IP; lysates of bud-stage zebrafish embryos expressing the tagged partner from injected mRNA; TNE lysis buffer (10 mM Tris-HCl pH 7.5, 150 mM NaCl, 2 mM EDTA, 0.5% Nonidet P-40), 4 °C for 4 hours; endogenous zFoxj1a detected by blot
T2 sequence: T1 sequence

[5] = target: T3, GST-zFoxj1a (zebrafish) (UniProt F1QDF8); assay: pull-down; GST-Foxj1a (or GST) immobilised on Glutathione-Sepharose 4B beads, incubated with the purified protein at 4 °C for 3 hours; western blot; both purified
T3 sequence: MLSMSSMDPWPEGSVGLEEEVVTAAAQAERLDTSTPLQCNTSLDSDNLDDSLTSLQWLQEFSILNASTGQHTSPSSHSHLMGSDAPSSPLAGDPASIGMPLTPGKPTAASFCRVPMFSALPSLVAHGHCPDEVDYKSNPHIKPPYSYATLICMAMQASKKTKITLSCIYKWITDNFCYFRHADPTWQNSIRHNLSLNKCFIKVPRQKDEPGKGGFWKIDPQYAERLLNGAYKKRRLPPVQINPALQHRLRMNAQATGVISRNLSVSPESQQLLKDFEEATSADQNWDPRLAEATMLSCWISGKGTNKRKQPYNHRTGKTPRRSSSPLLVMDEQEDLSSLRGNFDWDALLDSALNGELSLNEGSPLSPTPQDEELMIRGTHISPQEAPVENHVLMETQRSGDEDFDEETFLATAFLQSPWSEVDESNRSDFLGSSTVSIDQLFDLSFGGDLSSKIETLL

B1: zFoxj1a-T102A co-expressed with Psmd4b (protein, UniProt F1QDF8 1-458)
chain: T3 sequence with T102A
binding [1]: binds

B2: Flag-zFoxj1a (zebrafish forkhead box j1a) (natural protein, UniProt F1QDF8 1-458, looked up)
chain: T3 sequence
notes: forkhead box j1a (Foxj1a), zebrafish; In the self-association co-IP the second copy carried an HA tag instead of Flag (HA-zFoxj1a); also called Flag-tagged zFoxj1a; wild-type zFoxj1a; source: HEK293T, transfected, in lysate
binding [2]: binds

B3: Flag-zFoxj1a-T102D (natural protein, zebrafish, UniProt F1QDF8 1-458, looked up)
chain: T3 sequence with T102D
notes: forkhead box j1a (Foxj1a), zebrafish; In the self-association co-IP the second copy was differently tagged (HA); also called phospho-mimicking mutant of zFoxj1a; T102D mutant; source: HEK293T, transfected, in lysate
binding [3]: binds

B4: zFoxj1a overexpressed together with Flag-Psmd4b (protein, UniProt F1QDF8 1-458)
chain: T3 sequence
binding [1]: binds

B5: endogenous zFoxj1a (protein, UniProt F1QDF8 1-458)
chain: T3 sequence
binding [4]: binds

B6: recombinant Flag-Psmd4b (protein, UniProt Q561Y1 1-372)
chain: T1 sequence
binding [5]: binds
